From the supplement of paper PMC10849652
This is one part of the list.

By UniProt entry, the sequences of proteins in these tests, tags left out. Where a name states a change or a piece, a line headed by the entry shows the natural chain unless it says otherwise.
UniProt Q14376: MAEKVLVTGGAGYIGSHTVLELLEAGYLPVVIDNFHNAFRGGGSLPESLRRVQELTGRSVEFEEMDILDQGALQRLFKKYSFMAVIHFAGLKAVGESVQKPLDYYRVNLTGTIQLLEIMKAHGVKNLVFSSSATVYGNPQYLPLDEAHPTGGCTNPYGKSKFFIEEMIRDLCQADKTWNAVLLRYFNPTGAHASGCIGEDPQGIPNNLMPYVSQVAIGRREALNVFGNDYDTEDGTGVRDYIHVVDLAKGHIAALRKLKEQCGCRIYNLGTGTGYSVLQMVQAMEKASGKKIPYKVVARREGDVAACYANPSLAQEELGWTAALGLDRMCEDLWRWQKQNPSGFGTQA
UniProt O75600: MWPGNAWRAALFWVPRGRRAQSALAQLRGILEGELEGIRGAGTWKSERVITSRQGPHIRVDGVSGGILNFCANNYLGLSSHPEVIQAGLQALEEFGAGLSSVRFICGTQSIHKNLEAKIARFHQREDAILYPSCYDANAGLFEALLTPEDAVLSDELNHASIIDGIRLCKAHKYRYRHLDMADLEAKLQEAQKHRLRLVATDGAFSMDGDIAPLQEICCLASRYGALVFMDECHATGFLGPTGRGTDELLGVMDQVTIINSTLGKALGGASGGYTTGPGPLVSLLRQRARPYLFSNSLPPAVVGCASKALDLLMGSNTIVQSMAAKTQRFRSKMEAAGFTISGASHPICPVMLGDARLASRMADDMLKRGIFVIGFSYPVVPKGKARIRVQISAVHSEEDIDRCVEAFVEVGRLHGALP
UniProt P04062: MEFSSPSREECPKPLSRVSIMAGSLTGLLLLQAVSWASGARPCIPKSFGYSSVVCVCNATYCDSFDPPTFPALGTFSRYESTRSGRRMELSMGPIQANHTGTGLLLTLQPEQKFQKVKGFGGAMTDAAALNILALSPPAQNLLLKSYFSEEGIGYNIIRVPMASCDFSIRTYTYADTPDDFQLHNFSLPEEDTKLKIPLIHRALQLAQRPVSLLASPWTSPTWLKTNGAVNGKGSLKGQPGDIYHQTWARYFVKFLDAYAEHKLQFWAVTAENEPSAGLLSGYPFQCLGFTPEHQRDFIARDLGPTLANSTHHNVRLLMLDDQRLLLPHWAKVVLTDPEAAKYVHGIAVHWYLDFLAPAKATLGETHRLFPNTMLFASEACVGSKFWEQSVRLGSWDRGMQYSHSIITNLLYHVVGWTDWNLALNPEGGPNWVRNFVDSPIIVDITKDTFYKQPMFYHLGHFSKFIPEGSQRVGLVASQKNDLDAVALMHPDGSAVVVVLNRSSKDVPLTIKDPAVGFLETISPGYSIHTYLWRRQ
UniProt P15976: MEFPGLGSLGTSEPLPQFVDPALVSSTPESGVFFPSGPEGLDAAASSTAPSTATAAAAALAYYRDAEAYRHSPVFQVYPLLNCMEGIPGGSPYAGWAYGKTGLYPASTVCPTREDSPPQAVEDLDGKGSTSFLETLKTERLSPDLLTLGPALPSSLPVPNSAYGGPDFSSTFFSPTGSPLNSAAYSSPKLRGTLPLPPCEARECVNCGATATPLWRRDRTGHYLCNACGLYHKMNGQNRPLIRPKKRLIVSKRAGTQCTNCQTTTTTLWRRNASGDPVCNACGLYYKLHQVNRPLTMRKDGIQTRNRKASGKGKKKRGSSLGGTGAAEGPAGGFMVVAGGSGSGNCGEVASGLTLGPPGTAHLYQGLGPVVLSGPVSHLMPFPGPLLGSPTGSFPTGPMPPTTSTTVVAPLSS
UniProt Q9H3K2: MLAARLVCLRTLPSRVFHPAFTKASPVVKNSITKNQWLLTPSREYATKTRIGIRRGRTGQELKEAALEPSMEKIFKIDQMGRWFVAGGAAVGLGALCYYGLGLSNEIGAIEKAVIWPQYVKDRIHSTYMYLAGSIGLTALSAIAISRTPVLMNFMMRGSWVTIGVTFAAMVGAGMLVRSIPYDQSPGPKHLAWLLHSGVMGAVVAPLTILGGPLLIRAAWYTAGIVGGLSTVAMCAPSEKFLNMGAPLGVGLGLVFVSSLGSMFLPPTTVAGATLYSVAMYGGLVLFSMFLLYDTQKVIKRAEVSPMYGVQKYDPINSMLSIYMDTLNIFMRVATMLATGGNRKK
UniProt Q86YP4: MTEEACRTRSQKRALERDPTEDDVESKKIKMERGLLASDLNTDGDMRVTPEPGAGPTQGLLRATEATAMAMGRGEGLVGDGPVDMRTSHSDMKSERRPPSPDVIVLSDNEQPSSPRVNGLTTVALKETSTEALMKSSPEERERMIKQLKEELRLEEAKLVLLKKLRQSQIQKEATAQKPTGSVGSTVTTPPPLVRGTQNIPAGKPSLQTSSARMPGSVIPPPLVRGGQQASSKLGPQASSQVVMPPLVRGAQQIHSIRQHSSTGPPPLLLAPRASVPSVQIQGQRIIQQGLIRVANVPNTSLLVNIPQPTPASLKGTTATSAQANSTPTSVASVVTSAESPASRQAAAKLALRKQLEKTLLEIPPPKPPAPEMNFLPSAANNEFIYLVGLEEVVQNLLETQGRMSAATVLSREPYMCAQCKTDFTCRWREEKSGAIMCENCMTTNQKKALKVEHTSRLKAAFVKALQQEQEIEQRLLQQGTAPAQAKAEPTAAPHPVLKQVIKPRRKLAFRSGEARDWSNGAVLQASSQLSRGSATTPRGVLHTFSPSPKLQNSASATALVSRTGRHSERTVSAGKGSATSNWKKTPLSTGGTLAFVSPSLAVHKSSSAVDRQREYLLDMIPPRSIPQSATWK
UniProt O14976: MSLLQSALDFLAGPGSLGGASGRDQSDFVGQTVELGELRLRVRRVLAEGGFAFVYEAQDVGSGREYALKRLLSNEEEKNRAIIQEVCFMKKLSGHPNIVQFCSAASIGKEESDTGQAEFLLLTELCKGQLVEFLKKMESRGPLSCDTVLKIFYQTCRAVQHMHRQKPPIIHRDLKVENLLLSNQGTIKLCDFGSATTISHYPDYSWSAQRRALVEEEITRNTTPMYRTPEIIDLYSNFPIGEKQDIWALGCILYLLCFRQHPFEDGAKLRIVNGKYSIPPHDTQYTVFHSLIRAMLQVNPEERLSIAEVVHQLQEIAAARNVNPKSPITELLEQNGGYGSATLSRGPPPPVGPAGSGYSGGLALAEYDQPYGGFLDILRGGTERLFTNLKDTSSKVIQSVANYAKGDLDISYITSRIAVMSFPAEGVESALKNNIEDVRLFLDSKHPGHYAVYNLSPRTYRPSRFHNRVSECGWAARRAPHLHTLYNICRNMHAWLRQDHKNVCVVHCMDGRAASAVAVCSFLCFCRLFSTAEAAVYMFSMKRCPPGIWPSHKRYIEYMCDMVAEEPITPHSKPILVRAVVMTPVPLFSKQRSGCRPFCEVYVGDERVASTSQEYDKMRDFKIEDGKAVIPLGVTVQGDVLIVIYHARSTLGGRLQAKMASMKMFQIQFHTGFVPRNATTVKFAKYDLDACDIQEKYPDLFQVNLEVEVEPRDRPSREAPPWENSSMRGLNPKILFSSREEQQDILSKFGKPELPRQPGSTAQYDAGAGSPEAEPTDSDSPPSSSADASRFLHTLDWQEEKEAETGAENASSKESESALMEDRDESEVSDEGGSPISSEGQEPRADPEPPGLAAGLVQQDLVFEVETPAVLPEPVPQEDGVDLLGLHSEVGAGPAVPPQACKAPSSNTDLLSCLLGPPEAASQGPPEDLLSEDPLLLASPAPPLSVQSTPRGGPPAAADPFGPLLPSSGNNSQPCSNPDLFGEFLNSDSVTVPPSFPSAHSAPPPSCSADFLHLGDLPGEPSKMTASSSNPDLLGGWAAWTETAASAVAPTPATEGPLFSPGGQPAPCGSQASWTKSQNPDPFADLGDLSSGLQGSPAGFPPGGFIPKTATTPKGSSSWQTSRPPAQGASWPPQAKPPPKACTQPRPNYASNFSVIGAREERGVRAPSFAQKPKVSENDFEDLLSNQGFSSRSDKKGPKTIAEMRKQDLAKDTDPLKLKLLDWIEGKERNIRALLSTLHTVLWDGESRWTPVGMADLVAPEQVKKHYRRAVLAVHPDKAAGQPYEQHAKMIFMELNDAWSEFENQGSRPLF
UniProt Q9H0R8, whole entry, looked up: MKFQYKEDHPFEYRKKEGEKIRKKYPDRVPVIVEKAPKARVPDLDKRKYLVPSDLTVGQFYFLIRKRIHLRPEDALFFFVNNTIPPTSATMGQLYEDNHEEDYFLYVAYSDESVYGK
UniProt Q8TB36: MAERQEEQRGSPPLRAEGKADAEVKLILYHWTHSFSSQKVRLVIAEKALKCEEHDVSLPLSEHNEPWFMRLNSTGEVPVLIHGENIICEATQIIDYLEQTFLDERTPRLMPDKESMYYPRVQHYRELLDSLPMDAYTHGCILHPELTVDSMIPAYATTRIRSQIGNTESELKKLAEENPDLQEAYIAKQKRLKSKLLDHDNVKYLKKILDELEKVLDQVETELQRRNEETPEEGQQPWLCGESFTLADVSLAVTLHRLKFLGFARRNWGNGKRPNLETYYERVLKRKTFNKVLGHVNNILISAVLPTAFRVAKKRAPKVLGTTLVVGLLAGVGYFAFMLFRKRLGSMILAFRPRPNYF
UniProt Q06210: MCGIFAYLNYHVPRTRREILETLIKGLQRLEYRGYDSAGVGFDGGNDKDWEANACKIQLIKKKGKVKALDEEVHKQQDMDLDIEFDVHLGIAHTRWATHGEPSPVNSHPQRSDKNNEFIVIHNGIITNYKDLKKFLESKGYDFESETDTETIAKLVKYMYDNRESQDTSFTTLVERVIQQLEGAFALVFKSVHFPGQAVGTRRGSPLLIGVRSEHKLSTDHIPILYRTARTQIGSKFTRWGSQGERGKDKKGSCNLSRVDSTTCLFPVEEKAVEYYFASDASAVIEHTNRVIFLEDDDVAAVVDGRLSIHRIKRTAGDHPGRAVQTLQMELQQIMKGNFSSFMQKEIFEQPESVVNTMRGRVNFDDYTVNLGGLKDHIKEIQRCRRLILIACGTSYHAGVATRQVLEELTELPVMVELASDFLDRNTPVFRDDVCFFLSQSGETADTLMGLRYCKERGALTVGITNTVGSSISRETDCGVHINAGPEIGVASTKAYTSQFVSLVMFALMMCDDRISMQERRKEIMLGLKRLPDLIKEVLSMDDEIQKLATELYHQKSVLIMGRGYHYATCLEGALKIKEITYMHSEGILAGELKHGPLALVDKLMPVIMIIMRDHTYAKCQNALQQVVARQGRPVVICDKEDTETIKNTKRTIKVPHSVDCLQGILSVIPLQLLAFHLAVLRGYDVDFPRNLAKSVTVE
UniProt P51116, whole entry, looked up: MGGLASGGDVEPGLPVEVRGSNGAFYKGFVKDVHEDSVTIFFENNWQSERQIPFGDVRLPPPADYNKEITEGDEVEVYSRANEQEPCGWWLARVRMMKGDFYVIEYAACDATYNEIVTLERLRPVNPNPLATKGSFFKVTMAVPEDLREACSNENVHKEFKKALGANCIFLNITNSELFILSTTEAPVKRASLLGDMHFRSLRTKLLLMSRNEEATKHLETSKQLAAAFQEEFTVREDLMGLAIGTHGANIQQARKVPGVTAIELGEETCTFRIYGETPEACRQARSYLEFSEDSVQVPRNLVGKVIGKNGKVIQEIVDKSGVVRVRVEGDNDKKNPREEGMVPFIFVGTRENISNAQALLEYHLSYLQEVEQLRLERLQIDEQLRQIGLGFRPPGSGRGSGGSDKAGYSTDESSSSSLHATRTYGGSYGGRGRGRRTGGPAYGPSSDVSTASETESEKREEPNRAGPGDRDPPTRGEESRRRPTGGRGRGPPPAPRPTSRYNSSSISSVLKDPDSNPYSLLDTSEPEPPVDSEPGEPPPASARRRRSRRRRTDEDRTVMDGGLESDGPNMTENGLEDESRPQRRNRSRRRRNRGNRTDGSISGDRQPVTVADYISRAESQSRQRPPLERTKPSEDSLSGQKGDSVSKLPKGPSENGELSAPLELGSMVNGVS
UniProt Q9BTY2: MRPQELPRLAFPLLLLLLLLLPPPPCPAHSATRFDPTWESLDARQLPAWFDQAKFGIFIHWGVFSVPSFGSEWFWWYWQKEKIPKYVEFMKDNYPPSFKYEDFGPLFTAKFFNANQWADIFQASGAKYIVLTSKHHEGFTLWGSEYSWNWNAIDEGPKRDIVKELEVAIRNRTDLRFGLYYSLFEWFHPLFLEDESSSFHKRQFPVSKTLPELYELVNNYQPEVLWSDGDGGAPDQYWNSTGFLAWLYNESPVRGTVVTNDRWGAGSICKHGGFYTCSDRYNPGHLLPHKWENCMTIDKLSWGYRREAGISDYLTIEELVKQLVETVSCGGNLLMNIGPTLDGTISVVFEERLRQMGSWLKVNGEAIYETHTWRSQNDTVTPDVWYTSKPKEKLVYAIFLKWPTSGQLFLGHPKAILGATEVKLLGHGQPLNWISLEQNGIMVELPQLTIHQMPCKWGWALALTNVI

Compound: COc1cc(C(=O)O)ccc1NC(=O)[C@@H]1N[C@@H](CC(C)(C)C)[C@](C#N)(c2ccc(Cl)cc2F)[C@H]1c1cccc(Cl)c1F [idasanutlin]
Assay: log2 fold change, soluble protein after heating vs DMSO (PISA); higher = thermal stabilisation; K562 cells, 10 uM, 30 min; active = over 0.2 and 3.5 SD of the protein, either way, in both replicates (recomputed)
Method in brief: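 Values are thermal stability changes relative to control samples and are taken from duplicates. They are stated as log2 fold changes. Before quantification by TMTpro 16plex LC-MS/MS with equalised channel sums, K562 cells at 2×10^6 cells/mL were treated with 10 μM compound for 30 min, heated in aliquots for 3 min across 48°C-58°C, pooled, extracted in PBS with 0.5% NP-40 at 4°C, and centrifuged at 21,000xg for 90 min to give the soluble supernatant.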

log2 fold change, inactive:
GALE (UniProt Q14376) -0.05, GALC (UniProt P54803) -0.121, GCAT isoform 2 (UniProt O75600) 0.125, GBA (UniProt P04062) 0.035, GATA1 (UniProt P15976) -0.034, GGNBP2 (UniProt Q9H3C7) -0.037, GALNS (UniProt P34059) -0.043, GHITM (UniProt Q9H3K2) -0.124, GATAD2A isoform 3 (UniProt Q86YP4) 0.025, GAK (UniProt O14976) -0.748, FSCN1 (UniProt Q16658) -0.04, GADD45GIP1 (UniProt Q8TAE8) -0.041, GART (UniProt C9JZG2) -0.157, GCN1 (UniProt Q92616) 0.283, GABARAPL1 isoform 2 (UniProt Q9H0R8) -0.112, FRG1 (UniProt Q14331) 0.117, GDAP1 (UniProt Q8TB36) 0.017, GCLC (UniProt P48506) -0.045, G3BP2 (UniProt Q9UN86) 0.219, GFPT1 (UniProt Q06210) -0.012, FUT11 (UniProt Q495W5) 0.113, FXR2 (UniProt P51116) 0.282, FUCA2 (UniProt Q9BTY2) 0.177
